# Residue numbers refer to the chain shown, from its start. These are yes or no findings as the source states them, for the method shown. Binding seen in cells or lysates may run through a third protein. Binding calls can cover weak binding; strength is not graded here. Sequences can lack the tags named with a protein.
# By UniProt entry, the sequences of proteins in these tests, tags left out. Where a name states a change or a piece, a line headed by the entry shows the natural chain unless it says otherwise.
# UniProt Q9M1K0: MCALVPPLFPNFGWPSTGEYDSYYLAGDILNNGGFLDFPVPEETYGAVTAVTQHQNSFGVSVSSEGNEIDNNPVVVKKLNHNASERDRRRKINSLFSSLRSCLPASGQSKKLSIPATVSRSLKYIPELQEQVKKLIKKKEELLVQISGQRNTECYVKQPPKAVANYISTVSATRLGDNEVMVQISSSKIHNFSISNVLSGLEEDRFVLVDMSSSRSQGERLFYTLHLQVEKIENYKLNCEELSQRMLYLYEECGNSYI
# Columns and labels:
# [1] = molecular target: T1, FER-LIKE IRON …-INDUCED …ON FACTOR fused to GFP (FIT-GFP) (Arabidopsis thaliana) (UniProt Q0V7X4); assay: FRET or BRET
# T1 sequence: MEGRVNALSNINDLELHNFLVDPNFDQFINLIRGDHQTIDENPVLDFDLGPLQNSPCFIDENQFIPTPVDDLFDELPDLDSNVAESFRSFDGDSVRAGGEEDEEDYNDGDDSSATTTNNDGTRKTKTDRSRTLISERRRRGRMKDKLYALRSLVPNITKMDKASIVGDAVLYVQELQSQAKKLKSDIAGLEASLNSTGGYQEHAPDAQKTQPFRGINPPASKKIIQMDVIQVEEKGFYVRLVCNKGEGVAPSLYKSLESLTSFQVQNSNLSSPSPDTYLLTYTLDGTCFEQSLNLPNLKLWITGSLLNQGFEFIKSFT
# [2] = molecular target: T2, FITmSS271AA fused to GFP (FITmSS271AA-GFP) (Arabidopsis thaliana) (UniProt Q0V7X4); assay: FRET or BRET
# T2 sequence: T1 sequence with S271A, S272A
substance,measurement,setting,value
BASIC HELIX-LOOP-HELIX039 fused to mCherry (bHLH039-mCherry) (from UniProt Q9M1K0),binding,[1],binds
same,binding,[2],binds

# From paper doi:10.1101/2022.12.20.520918
